In this test the target is T1, Ssd1-TAP (S. cerevisiae) (UniProt P24276).
T1 sequence: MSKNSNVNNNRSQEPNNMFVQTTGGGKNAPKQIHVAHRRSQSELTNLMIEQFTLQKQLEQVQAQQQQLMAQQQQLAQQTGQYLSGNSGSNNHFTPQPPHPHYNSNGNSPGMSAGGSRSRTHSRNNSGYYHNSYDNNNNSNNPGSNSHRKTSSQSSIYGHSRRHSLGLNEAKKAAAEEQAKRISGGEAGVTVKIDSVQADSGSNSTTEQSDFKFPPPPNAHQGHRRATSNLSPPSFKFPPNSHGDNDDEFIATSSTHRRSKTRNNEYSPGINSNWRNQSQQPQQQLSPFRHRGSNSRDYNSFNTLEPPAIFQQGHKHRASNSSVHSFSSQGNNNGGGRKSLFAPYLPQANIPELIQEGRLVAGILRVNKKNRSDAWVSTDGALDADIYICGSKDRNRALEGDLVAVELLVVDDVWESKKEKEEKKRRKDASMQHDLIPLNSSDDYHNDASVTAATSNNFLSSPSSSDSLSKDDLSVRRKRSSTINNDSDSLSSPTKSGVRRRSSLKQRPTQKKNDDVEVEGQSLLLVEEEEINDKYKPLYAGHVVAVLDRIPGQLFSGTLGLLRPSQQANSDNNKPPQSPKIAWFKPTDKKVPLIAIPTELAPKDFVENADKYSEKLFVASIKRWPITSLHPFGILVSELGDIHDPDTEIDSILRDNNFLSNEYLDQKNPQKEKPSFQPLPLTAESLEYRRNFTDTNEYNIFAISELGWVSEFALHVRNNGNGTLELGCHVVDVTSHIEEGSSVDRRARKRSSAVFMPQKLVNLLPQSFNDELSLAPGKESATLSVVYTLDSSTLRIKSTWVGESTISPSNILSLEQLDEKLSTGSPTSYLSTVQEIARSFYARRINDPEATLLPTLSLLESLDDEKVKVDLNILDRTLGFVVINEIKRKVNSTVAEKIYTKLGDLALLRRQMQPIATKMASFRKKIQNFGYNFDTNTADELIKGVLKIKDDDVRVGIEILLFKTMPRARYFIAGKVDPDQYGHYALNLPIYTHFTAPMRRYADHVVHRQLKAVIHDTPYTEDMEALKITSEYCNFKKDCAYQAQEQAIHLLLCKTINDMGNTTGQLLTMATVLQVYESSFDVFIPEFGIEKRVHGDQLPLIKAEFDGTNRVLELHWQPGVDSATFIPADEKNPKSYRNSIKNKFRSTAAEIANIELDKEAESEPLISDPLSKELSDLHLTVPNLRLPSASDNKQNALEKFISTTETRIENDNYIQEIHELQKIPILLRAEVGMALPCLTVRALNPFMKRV
Put plainly: co-IP; Ssd1-TAP or eIF2A-TAP as bait on IgG-coupled magnetic beads from yeast lysate, beads washed 3 times, with or without micrococcal nuclease before elution; Western blot with PAP, anti-HA or anti-XrnI antibodies. (In general: A western blot detects proteins with antibodies after separation by electrophoresis.)

No constants are given. Whether binding was seen depends on the method and setting. In cells and extracts the contact can be indirect. Some binding calls cover weakened binding; strength is not graded here. Sequences can lack the tags named with a protein.

B1: eIF2A-HA (protein, UniProt P53235 1-642)
chain: MSSQFFLKTSQDIELFQSYPTFEQSNTNSKDFPVISSVLSPCGRFLALSTKENVKVFTGPCLDNVLLTMKLSDVYDLHFSPAGNYLSTWERASIQDPNHKNVKVWYLNKPFKKDCVSEDIVPAYEYQAKSQSGWFLQFSKLDNYGLRLFKHDLKIVKLSSANADNFDFQSPFAVLSDDETSQHFTTYLISPAEHPTICTFTPEKGGKPAQLIIWALSEGKITKKIASKTFFKADSCQLKWNPLGNAILCLAITDFDSSNKSYYGENTLYLLSFQGVNGTLGGNSVRVSLTTGPVHDFTWSPTSRQFGVIAGYMPATISFFDLRGNVVHSLPQQAKNTMLFSPSGHYILIAGFGNLQGSVEILDRLDKFKCVSKFDATNTSVCKWSPGGEFIMTATTSPRLRVDNGVKIWHVSGSLVFVKEFKELLKVDWRSPCNYKTLENKDEAFFENHIINNWEPLPDSTTSSLDPKISNKSELQIHSSVQEYISQHPSREASSNGNGSKAKAGGAYKPPHARRTGGGRIVPGVPPGAAKKTIPGLVPGMSANKDANTKNRRRRANKKSSETSPDSTPAPSAPASTNAPTNNKETSPEEKKIRSLLKKLRAIETLKERQAVGDKLEDTQVLKIQTEEKVLKDLEKLGWKDE
Turning to B1, the binding result is given as “binds”.

(Values after PMC10681259.)
